This data set concerns obesity model hamster fed on a high fat diet. Put plainly: Effect of suppressing the body weight gain in the obesity model hamster fed on a high fat diet. The conditions noted are these: for daily dietary intake (in terms of energy): between the high-fat diet group, the EPA group and the DHA group; for observation of the liver (fatty liver): high fat diet + 2% test substance. In kind it is in vivo, Syrian hamsters. The procedure: 6 week old male Syrian hamsters (Japan SLC, Inc.) were bred at a temperature of 23±3° C. and a light-dark cycle of 12 hours on a free feeding of standard diet for 11 days, and the hamsters were divided into 4 groups, namely, standard forage group (Standard) (n=4), high-fat diet group (n=8), EPA group (HF+EPA-E) (n=8), and DHA group (HF+DHA-E) (n=7). The standard diet used was CLEA Rodent Diet CE-2 (4.8% fat) manufactured by CLEA Japan, Inc. and the high fat diet (HF) used was Hypercholesterolemic Hamster Diet (9% sugar and fat 21% fat) manufactured by Wilson. The effects of the EPA and DHA on the body weight gain were confirmed by using hamsters fed on a high fat diet (HF). During the feeding on the high fat diet, a mixed diet of high fat diet+2% EPA-E (comprising 98.24% EPA-E manufactured by Nippon Suisan Kaisha, Ltd.) was given to the EPA group, and a mixed diet of high fat diet+2% DHA-E (comprising 97.4% DHA-E manufactured by Equateq Ltd.) was given to the DHA group (with the diet changed once a day in the morning). The control group was given a high fat diet or a standard diet (comprising 4.8% fat) (with the diet changed once a day in the morning). The body weight was measured from the day of the start of the administration. The body weight gain rate on the 21st day was higher in the group fed on the high-fat diet group compared to the standard forage group, and the group fed on the high-fat diet was in the condition of obesity. […] This confirms that the action of suppressing the body weight gain (or reducing the body weight) of the EPA-E is realized by the action of suppressing (or reducing) the amount of fat, namely, the anti-obesity action.

Take `CC/C=C\C/C=C\C/C=C\C/C=C\C/C=C\C/C=C\CCC(=O)OCC` [DHA-E, ethyl docosahexaenoate]: the “daily dietary intake (in terms of energy)” value is reported as “significant difference was not recognized” and the “observation of the liver (fatty liver)” value is listed as “clear fatty liver was not found”.

As to `CC/C=C\C/C=C\C/C=C\C/C=C\C/C=C\CCCC(=O)OCC` [EPA-E, ethyl icosapentate], the “daily dietary intake (in terms of energy)” value is listed as “significant difference was not recognized” and the “observation of the liver (fatty liver)” value was “clear fatty liver was not found”.

These data come from patent US9345681B2, “Anti-obesity agent comprising high-purity EPA” (MOCHIDA PHARMACEUTICAL CO., LTD., priority 2011, dated 2016).
